Experimental findings from publication PMC2847038 (Hippocampus, 2010) are described below.

This assay deals with Ki-67 positive progenitor cells in the dentate gyrus. To be noted: 1 mg/kg daily, 8 days, alone or combined with VEx.

With `Cc1c(C(=O)NN2CCCCC2)nn(-c2ccc(Cl)cc2Cl)c1-c1ccc(I)cc1` [AM251], the “cellular expression of Ki-67 within the hilus of the dentate gyrus” value is on record as “Neither treatment, alone nor in combination, had any effect”.
